# Test results: article PMC5996148
# Amino acid sequences for entries named in this document (tags omitted). A change or cut given only in a name is not applied to a line headed by its entry.
# UniProt Q9BQ15: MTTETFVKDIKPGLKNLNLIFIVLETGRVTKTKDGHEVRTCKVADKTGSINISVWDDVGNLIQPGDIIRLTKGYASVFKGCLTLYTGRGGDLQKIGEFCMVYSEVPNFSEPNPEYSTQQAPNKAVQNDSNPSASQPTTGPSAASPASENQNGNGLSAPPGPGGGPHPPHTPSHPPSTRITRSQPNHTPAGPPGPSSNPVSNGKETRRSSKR
# “And” between values parts separate entries of the source, which are not always exact repeats. Equal entries are not always repeated. Some of the results follow. For some of these results: Construct or isoform of the protein are uncertain.
# Columns and labels:
# Test in all cases: protein microarray (ProtoArray v5.0), streptavidin-Alexa Fluor 647
# Details in all cases: 3'-biotin; 20 mM Tris (pH 7.5), 5 mM MgCl2, 100 mM KCl, 0.1% Tween-20, A/T-rich and random oligonucleotide blockers; temperature not stated; high values mean tight binding
# [1] = test system: Nuclear protein Hcc-1 (human)
# [2] = test system: Nuclear receptor-binding protein (human)
# [3] = molecular target: OBFC2B (UniProt Q9BQ15)
# [4] = test system: ODAM (human)
# [5] = test system: OGN (human)
# [6] = test system: OGT (human)
# [7] = test system: OPA3 (human)
# [8] = test system: OR4D6 (human)
# [9] = test system: ORC4L (human)
# [10] = test system: ORM1 (human)
sequence,measurement,setting,value
GGTGACAGGGGTATGGGGAGGGG [G4-2 biotinylated (Ct1)],binding signal,[1],4.43 z-score and 6.78 z-score
same,binding signal,[2],-0.39 z-score
same,binding signal,[3],3.15 z-score
same,binding signal,[4],-0.389 z-score
same,binding signal,[5],-0.383 z-score
same,binding signal,[6],-0.405 z-score
same,binding signal,[7],-0.375 z-score
same,binding signal,[8],-0.356 z-score
same,binding signal,[9],-0.36 z-score
same,binding signal,[10],-0.39 z-score
